This is an account of results in paper PMC12219335.

Amino acid sequences for entries named in this document (tags omitted). Residues count along the entry.
UniProt Q9NZQ7, residues 19-290: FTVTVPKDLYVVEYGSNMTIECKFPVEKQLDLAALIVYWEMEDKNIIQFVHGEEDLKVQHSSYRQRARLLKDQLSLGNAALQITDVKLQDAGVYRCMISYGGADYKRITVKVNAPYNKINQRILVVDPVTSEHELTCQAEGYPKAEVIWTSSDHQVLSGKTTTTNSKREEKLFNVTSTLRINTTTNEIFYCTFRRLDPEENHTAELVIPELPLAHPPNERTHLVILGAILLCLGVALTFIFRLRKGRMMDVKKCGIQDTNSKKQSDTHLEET

Experiment [1] addresses T1, 3xFlag-CHP1-NmyrMT (UniProt Q99653).
T1 sequence: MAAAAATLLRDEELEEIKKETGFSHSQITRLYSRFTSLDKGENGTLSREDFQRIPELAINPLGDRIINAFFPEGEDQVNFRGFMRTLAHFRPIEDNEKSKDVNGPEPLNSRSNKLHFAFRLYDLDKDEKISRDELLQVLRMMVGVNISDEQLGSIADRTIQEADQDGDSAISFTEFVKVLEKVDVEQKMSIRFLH
Briefly: co-IP; tumor cell lines (not named) transfected with 3xFlag-CHP1-WT or 3xFlag-CHP1-NmyrMT; anti-FLAG M2 (5 µg/IP); blots for Flag and PD-L1.

For experiment [2], the target named is T2, 3xFlag-CHP1-WT (UniProt Q99653).
T2 sequence (chain, N-terminal myristoylation (labelled by YnMyr, Fig. 5J)): T1 sequence with A2G, A3S, A4R, A6S
The experiment is described as above.

Experiment [3] deals with T3, calcineurin B homologous protein 1 (CHP1) (human (endogenous in SCC9)) (UniProt Q99653).
T3 sequence (chain, N-terminal myristoylation (by NMT1; labelled by YnMyr)): T1 sequence with A2G, A3S, A4R, A6S
Briefly: co-IP; endogenous proteins; anti-CHP1 (2.5 µg/IP) or anti-PD-L1 (2.5 µg/IP) antibody, Western blot; SCC9 cells, also after NMT1 knock-down (shNMT1), IP with anti-CHP1 and blot for PD-L1. (Immunoblotting shows a protein as a band on a membrane.)

Substitutions are numbered along the chain they refer to. Results are given in words; binding and its absence hold for the method and conditions named. In cells and extracts the contact can be indirect. Some results given as binding are weak or reduced against the parent protein; the word gives no strength. For part of these data: Tags and fused reporters may be left off the sequences shown.

Consider “programmed death ligand 1 (PD-L1) (from UniProt Q9NZQ7 19-290)”, for which the values for the binding result in experiment [1], in experiment [2] and in experiment [3] were “no binding”, “binds” and “binds”, respectively.
